Test results taken from PMC13034042.
No constants are given. Whether binding was seen depends on the method and setting. Binding seen in cells or lysates may run through a third protein. A yes stands for co-enrichment or nearness to the bait. Other partners may have been found.

By UniProt entry, the sequences of proteins in these tests, tags left out.
UniProt P14126: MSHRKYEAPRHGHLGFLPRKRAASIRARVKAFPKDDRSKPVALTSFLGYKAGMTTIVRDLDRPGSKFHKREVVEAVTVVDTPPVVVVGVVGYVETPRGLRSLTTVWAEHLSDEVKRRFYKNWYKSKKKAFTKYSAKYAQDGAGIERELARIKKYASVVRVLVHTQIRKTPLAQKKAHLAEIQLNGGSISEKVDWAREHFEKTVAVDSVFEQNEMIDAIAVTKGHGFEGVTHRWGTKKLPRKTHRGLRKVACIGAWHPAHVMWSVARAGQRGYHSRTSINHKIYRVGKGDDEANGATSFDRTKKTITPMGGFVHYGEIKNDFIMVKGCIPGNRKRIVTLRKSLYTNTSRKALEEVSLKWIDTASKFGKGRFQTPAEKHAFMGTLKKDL
UniProt P0CX44: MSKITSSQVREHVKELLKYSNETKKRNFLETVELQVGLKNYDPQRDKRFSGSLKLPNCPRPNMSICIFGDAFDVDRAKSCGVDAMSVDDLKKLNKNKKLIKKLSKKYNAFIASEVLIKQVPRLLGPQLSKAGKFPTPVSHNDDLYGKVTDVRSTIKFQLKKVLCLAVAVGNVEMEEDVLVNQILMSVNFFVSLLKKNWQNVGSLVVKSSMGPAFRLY

T1: Bcl1-TurboID (S. cerevisiae) (UniProt P53962)
T1 sequence: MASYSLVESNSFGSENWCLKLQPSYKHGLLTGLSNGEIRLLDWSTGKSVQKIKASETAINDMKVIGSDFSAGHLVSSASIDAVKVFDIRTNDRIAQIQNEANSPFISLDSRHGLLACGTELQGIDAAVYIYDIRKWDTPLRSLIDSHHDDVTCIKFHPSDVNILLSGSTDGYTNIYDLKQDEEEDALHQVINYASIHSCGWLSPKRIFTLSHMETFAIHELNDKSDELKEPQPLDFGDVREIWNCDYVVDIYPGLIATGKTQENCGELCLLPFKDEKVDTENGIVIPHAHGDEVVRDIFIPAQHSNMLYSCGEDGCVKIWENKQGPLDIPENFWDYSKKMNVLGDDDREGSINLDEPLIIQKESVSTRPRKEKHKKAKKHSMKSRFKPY

B1: Reh1 (endogenous) (protein, UniProt Q06709 1-432)
chain: MSSTFFTCNCCVIQFKTSDLQRYHMKTEWHRYNLKRRIANLPPIGAEQFAEKLQISEKEQAENQVDEFGFPVLKPVMNQSNALPQKQKKPIKSKRGRKVGTNLLKRKDRDIAKEKQNRSVSPSGSISSQLSNLTVGTENTNTDYGEDTVSEYGFTSDSNYEYATSDEELDIADKPSDKENEKITITECIYCGKDNKEVERNVKHMFSEHGLFIPERSYLIDLNGLLEFLIKMIVIDHNCLCCNFHGSGLESIRAHMASKRHCRLPYETKEERQLFAPFYDFTYDDHSISKNLQNDRAITSKLSSVYGAKNDEEDGEVDITLVSSENDINANYTTVSIDESGLELTLPTGARLGHRAGQRYYRQNLPSQPNPNESRRTITAADRRMVSGVTEKQYKKGMKKMQQLEKNAINTQIRREIKRVNFQTHYRDELLQ
B2: Rei1 (endogenous) (protein, UniProt P38344 1-393)
chain: MSSSGVYTCNSCVLTFDSSDEQRAHMKSDWHRYNLKRRVAQLPPISFETFDSKVSAAAASTSKSAEKEKPVTKKELKRREKQALLEKKKKLLEIARANMLENMQKSQEGNTPDLSKLSLQENEENKEKEEPKKEEPEQLTEEEMAERVMQEKLRNRVDIPLEQCLFCEHNKHFKDVEENLEHMFRTHGFYIPEQKYLVDKIGLVKYMSEKIGLGNICIVCNYQGRTLTAVRQHMLAKRHCKIPYESEDERLEISEFYDFTSSYANFNSNTTPDNEDDWEDVGSDEAGSDDEDLPQEYLYNDGIELHLPTGIKVGHRSLQRYYKQDLKPEVILTEGQGTLVAAETRSFLPAFDKKGVQTQQRVWQTERFDKKRLDKRSAKFVNNQPHYRDQLLQ
B3: Dbp9 (endogenous) (protein, UniProt Q06218 1-594)
chain: MSYEKKSVEGAYIDDSTTFEAFHLDSRLLQAIKNIGFQYPTLIQSHAIPLALQQKRDIIAKAATGSGKTLAYLIPVIETILEYKKTIDNGEENGTLGIILVPTRELAQQVYNVLEKLVLYCSKDIRTLNISSDMSDSVLSTLLMDQPEIIVGTPGKLLDLLQTKINSISLNELKFLVVDEVDLVLTFGYQDDLNKIGEYLPLKKNLQTFLMSATLNDDIQALKQKFCRSPAILKFNDEEINKNQNKLLQYYVKVSEFDKFLLCYVIFKLNLIKGKTLIFVNNIDRGYRLKLVMEQFGIKSCILNSELPVNSRQHIVDQFNKNVYQLLIATDDTEYIKEEDDEIEEGHNTENQEEKSLEGEPENDKKPSKKKKVQVKKDKEYGVSRGVDFKNVACVLNFDLPTTAKSYVHRVGRTARGGKTGTAISFVVPLKEFGKHKPSMLQTAKKDERILSRIIKQQSKLGLELQPYKFDQKQVEAFRYRMEDGFRAVTQVAIREARVKELKQELLASEKLKRHFEENPKELQSLRHDKELHPARVQQHLKRVPDYLLPESARGNGTKVKFVPFHNAKKRHSHKKGRVSKPKNGKVDPLKNFK
B4: Sda1 (endogenous) (protein, UniProt P53313 1-767)
chain: MGRRSRAAMLPTNIILLQNLVKRDPESYQEEFLQQYAHYESLRDIFMLNGLAGGDSAAATNGLDVGNGSSTMAGTNGTTMSTSTSQLIELVGFVSQVCSCFPRETANFPSELKQLLLEHHKSLPFELKEKILSCLTMLRNKDVITAEELIQSLFPLLVAYSSHGNSLGVNSHAKELRKIIYTNLISLLKSCNTNGKNQKLNKSTQAVCFNLLDQPDSQGIWATKLTRELWRRGIWDDSRTVEIMTQAALHQDVKIVMSGVMFFLDADREREENFEENSEDEDGFDLDALRHKMQVNKKTGRRGKKLENAIKTVKKKKKNGPGAPQGYLNFSAIHLLRDPQGFAEKLFKEHLSGKTKNKFDMEQKISLMQLLSRLIGTHKLIVLGIYTFFLKYLTPKQRDVTRIMSACAQACHDLVPPEVINVMVRKIADEFVSDGVANEVAAAGINTIREICSRAPLAIDEILLQDLVEYKGSKAKGVNMAAKSLIALYRDVAPEMLKKKDRGKNAAMEVQEAKKGGKDSKRPQFGADNSVQGIAGIELLAKWKKEHGEESENEDADANWEVDVDSEEDDVDGEWVTMDSDKEYDVDMEDSDDEKDNAKGKESDSDLELSDDDDEKEVKDEQEDADIDPEAAFREIASTRILTPADFAKLQELRNEESVAKIMGIHKQDKREELVDASTLTGPIKYKQSREERLQKVLEGREGRDKFGSRRGKRDNMRSTTNREKERRKNFVMSIHKRSVRGKQKMSLRDKQKVLRAHITKQKKKGY
B5: Bcl1 (endogenous) (protein, UniProt P53962 1-389)
chain: T1 sequence
B6: Rrp15 (endogenous) (protein, UniProt Q06511 1-250)
chain: MGSKHRVDTKDKKRTRKNAEFGREKRNSGNQELSNEPEKDTIMEGDEAEEDEQNSSSDESSKIIDNEQSDAEEDDDEEEEDDDFPRKKKSKNSKHDDGSTGFSAAVNAILSSHLKAYDRKDPIMARNKKVLKQSESEKLEYKAKKALLAEKKKLLGKARKTDIIPIASGEDRSENIRKVLEKETALRKIAQKGAVKLFNAILATQVKTEKEVSENLSEIKNKEEKKELITEVSKEKFLDLVKAAAGSDNE
B7: Ebp2 (endogenous) (protein, UniProt P36049 1-427)
chain: MAKGFKLKELLSHQKEIEKAEKLENDLKKKKSQELKKEEPTIVTASNLKKLEKKEKKADVKKEVAADTEEYQSQALSKKEKRKLKKELKKMQEQDATEAQKHMSGDEDESGDDREEEEEEEEEEEGRLDLEKLAKSDSESEDDSESENDSEEDEDVVAKEESEEKEEQEEEQDVPLSDVEFDSDADVVPHHKLTVNNTKAMKHALERVQLPWKKHSFQEHQSVTSETNTDEHIKDIYDDTERELAFYKQSLDAVLVARDELKRLKVPFKRPLDYFAEMVKSDEHMDKIKGKLIEEASDKKAREEARRQRQLKKFGKQVQNATLQKRQLEKRETLEKIKSLKNKRKHNEIDHSEFNVGVEEEVEGKRFDRGRPNGKRAAKNAKYGQGGMKRFKRKNDATSSADVSGFSSRKMKGKTNRPGKSRRARRF
B8: Erb1 (endogenous) (protein, UniProt Q04660 1-807)
chain: MMAKNNKTTEAKMSKKRAASEESDVEEDEDKLLSVDGLIDAEASESDEDDDEYESAVEEKESSSDKEAQDDSDDDSDAELNKLLAEEEGDGEEDYDSSEFSDDTTSLTDRLSGVKLQTIVDPNIYSKYADGSDRIIKPEINPVYDSDDSDAETQNTIGNIPLSAYDEMPHIGYDINGKRIMRPAKGSALDQLLDSIELPEGWTGLLDKNSGSSLNLTKEELELISKIQRNEQTDDSINPYEPLIDWFTRHEEVMPLTAVPEPKRRFVPSKNEAKRVMKIVRAIREGRIIPPKKLKEMKEKEKIENYQYDLWGDSTETNDHVMHLRAPKLPPPTNEESYNPPEEYLLSPEEKEAWENTEYSERERNFIPQKYSALRKVPGYGESIRERFERSLDLYLAPRVRKNKLNIDPNSLIPELPSPKDLRPFPIRCSTIYAGHKGKVRTLSIDPSGLWLATGSDDGTVRVWEILTGREVYRTTLIDDEENPDYHIECIEWNPDANNGILAVAVGENIHLIVPPIFGYDIENNGKTKIEDGFGYDTFGTVKKSNLEVNENGDGDEDGENESAKNAVKKQVAQWNKPSQKQLEKDICITISCKKTVKKLSWHRKGDYFVTVQPDSGNTSVLIHQVSKHLTQSPFKKSKGIIMDAKFHPFKPQLFVCSQRYVRIYDLSQQILVKKLLPGARWLSKIDIHPRGDNLIASSFDKRVLWHDLDLASTPYKTLRYHEKAVRSVNFHKKLPLFSSAADDGTIHVFHATVYDDMMKNPMIVPLKKLTGHKVINSLGVLDAIWHPREAWLFSAGADNTARLWTT
B9: Spb4 (endogenous) (protein, UniProt P25808 1-606)
chain: MSKSLEWDNLGFSLLPWIRTGLDVMGFETMTPVQASTIPMLAGNKDVVVDSVTGSGKTAAFVIPVLEKVVKEEANTSKFKKAHFHSLIIAPTRELSRQIESVVLSFLEHYPSDLFPIKCQLLVGTNEATVRDDVSNFLRNRPQILIGTPGRVLDFLQMPAVKTSACSMVVMDEADRLLDMSFIKDTEKILRLLPKQRRTGLFSATMRSAGSDIFKTGLRNPVRITVNSKNQAPSSLKLNYCVVNPAEKLQLLVSILNNYKFKKCIVYFPTCVSVSYFYSFIQYLGKRNILVNEVEIFSLHGKLQTSARTKTLTAFTDSLSNSVLFTTDVAARGIDIPDVDLVIQLDPPTNTDMFMHRCGRTGRANRVGKAITFLNEGREEDFIPFMQVKNVELEELDLEVKGITTNFYEDFRNWILEDRDRFDKGVKAYVAFIKYYSNHSATSIFRLQSLDYVGIAKLYGLFRLPRMPEITKYLATEKQEGIFPGNWLVDPPVNMDEYKYKDKKREKERQETLKNISLINDKKKLKSELKKKNLAWSDKTLTKERKLERKEKMSLKRKAIEEELKAEELDENAEEERIKEDWKEIVLQNKRKKVSSKAIQGNFDDL

Assays:
Assay in all cases: proximity labelling; TurboID-fused bait expressed from a centromeric CUP1-promoter plasmid in S. cerevisiae YDK11-5A; 500 μM copper sulphate and 500 μM biotin for 1 h at 30°C; biotinylated proteins purified on streptavidin agarose and identified by LC-MS/MS; enrichment against the GFP-TurboID and NLS-GFP-TurboID type controls
[1] = molecular target: Rpl3-TurboID (S. cerevisiae) (UniProt P14126)
[2] = molecular target: TurboID-Rpl1b (S. cerevisiae) (UniProt P0CX44)
[3] = molecular target: T1, Bcl1-TurboID (S. cerevisiae)

| Binder | binding [1] | other results |
| --- | --- | --- |
| B1 | binds |  |
| B2 | binds |  |
| B3 | binds |  |
| B4 |  | binding [2]: binds |
| B5 |  | binding [2]: binds |
| B6 | binds |  |
| B7 |  | binding [3]: binds |
| B8 |  | binding [3]: binds |
| B9 | binds |  |
